Experimental data: paper PMC11634737
No constants are given. Whether binding was seen depends on the method and setting. For some of these results: In cells and extracts the contact can be indirect. Some binding calls cover weakened binding; strength is not graded here. For some of these results: Sequences can lack the tags named with a protein. Blank lines part the entries; values can stand above or below the binder they belong to.

Assays:
[1] = target: T1, Flag-PSF (polypyrimidine tract-binding protein-associated splicing factor) (UniProt P23246); assay: co-IP; 293T cells transfected with Flag-PSF and HA-G3BP2, harvested after 24 h; immunoprecipitation with anti-Flag or anti-HA antibodies, protein G agarose, western blot
T1 sequence: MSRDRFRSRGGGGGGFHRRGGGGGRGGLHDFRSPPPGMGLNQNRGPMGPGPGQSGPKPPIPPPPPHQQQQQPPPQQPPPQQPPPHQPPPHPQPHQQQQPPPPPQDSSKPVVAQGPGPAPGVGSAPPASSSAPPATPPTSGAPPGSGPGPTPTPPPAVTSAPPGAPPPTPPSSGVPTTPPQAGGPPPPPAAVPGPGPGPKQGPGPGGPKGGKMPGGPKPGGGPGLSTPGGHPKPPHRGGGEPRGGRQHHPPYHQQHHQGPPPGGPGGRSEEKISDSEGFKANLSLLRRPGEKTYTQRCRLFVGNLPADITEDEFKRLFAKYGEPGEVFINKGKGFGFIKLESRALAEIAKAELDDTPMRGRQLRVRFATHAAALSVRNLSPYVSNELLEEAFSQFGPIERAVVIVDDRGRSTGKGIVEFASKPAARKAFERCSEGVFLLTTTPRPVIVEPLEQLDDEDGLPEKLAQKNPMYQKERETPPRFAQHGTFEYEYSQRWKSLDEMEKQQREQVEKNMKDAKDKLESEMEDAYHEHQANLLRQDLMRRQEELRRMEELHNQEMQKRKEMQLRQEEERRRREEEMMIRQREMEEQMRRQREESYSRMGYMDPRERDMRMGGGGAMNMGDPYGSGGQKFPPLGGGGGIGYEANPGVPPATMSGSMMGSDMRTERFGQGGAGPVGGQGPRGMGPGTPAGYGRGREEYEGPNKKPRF

purified PSF = target: T2, purified PSF (UniProt P23246); assay: in vitro binding assay; purified G3BP2 and purified PSF; format not told in the text shown (Figure S2c); both purified
T2 sequence: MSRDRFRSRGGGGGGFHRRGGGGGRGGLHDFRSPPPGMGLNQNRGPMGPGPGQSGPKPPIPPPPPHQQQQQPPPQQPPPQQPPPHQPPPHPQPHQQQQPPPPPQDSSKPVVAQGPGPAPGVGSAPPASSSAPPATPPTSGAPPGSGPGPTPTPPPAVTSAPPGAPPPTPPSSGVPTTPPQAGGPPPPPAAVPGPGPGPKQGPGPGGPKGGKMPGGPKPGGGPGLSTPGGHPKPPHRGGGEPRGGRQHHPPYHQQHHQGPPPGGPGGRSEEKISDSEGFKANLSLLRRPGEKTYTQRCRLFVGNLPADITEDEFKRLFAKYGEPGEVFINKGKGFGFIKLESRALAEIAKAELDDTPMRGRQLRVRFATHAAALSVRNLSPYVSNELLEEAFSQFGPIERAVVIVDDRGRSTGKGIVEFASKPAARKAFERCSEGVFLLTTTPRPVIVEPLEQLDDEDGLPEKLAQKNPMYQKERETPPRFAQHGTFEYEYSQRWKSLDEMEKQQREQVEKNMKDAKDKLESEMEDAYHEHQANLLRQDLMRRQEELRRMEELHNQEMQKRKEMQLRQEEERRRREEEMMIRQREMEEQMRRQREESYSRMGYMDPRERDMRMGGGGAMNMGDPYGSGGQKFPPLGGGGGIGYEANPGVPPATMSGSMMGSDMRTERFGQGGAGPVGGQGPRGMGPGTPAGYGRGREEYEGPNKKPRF

[2] = substrate: T3, PSF, endogenous in SH-SY5Y cells (human (endogenous in SH-SY5Y)) (UniProt P23246); assay: co-IP; endogenous proteins, nuclear fraction of SH-SY5Y cells (RIPA buffer), untreated or treated with 100 uM sodium arsenite or 1 mM H2O2 for 1 h; immunoprecipitation with anti-G3BP2, anti-PSF or nonspecific IgG, western blot
T3 sequence: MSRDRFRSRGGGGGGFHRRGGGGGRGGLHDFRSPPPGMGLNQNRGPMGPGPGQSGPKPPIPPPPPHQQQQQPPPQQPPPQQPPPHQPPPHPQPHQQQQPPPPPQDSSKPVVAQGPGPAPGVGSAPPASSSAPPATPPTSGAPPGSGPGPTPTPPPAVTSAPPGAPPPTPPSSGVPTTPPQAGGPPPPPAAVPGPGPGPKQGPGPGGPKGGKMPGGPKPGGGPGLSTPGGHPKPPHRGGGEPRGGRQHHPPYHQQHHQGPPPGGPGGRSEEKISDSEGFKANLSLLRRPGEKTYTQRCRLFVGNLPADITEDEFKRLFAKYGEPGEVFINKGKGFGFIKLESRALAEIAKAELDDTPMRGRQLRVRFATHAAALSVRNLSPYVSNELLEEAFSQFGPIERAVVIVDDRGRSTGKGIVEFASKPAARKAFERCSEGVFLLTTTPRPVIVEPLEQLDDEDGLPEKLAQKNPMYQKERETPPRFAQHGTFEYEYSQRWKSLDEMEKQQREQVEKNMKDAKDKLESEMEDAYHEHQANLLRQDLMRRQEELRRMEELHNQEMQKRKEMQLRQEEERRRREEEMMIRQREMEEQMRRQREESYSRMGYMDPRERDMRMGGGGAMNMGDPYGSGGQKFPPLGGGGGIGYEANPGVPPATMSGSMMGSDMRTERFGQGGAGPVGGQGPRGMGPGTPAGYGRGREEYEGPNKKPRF

[3] = substrate: T3, ; assay: co-IP; endogenous proteins, cytoplasmic fraction of SH-SY5Y cells (hypotonic solution, 1% NP40), untreated or treated with 100 uM sodium arsenite or 1 mM H2O2 for 1 h; immunoprecipitation with anti-G3BP2, anti-PSF or nonspecific IgG, western blot

binding [1]: binds
B1: HA-G3BP2 (RasGAP-associated endoribonuclease 2) (protein, UniProt Q9UN86 1-482)
chain: MVMEKPSPLLVGREFVRQYYTLLNKAPEYLHRFYGRNSSYVHGGVDASGKPQEAVYGQNDIHHKVLSLNFSECHTKIRHVDAHATLSDGVVVQVMGLLSNSGQPERKFMQTFVLAPEGSVPNKFYVHNDMFRYEDEVFGDSEPELDEESEDEVEEEQEERQPSPEPVQENANSGYYEAHPVTNGIEEPLEESSHEPEPEPESETKTEELKPQVEEKNLEELEEKSTTPPPAEPVSLPQEPPKAFSWASVTSKNLPPSGTVSSSGIPPHVKAPVSQPRVEAKPEVQSQPPRVREQRPRERPGFPPRGPRPGRGDMEQNDSDNRRIIRYPDSHQLFVGNLPHDIDENELKEFFMSFGNVVELRINTKGVGGKLPNFGFVVFDDSEPVQRILIAKPIMFRGEVRLNVEEKKTRAARERETRGGGDDRRDIRRNDRGPGGPRGIVGGGMMRDRDGRGPPPRGGMAQKLGSGRGTGQMEGRFTGQRR

binding (purified PSF): binds
B2: purified G3BP2 (protein, UniProt Q9UN86 1-482)
chain: MVMEKPSPLLVGREFVRQYYTLLNKAPEYLHRFYGRNSSYVHGGVDASGKPQEAVYGQNDIHHKVLSLNFSECHTKIRHVDAHATLSDGVVVQVMGLLSNSGQPERKFMQTFVLAPEGSVPNKFYVHNDMFRYEDEVFGDSEPELDEESEDEVEEEQEERQPSPEPVQENANSGYYEAHPVTNGIEEPLEESSHEPEPEPESETKTEELKPQVEEKNLEELEEKSTTPPPAEPVSLPQEPPKAFSWASVTSKNLPPSGTVSSSGIPPHVKAPVSQPRVEAKPEVQSQPPRVREQRPRERPGFPPRGPRPGRGDMEQNDSDNRRIIRYPDSHQLFVGNLPHDIDENELKEFFMSFGNVVELRINTKGVGGKLPNFGFVVFDDSEPVQRILIAKPIMFRGEVRLNVEEKKTRAARERETRGGGDDRRDIRRNDRGPGGPRGIVGGGMMRDRDGRGPPPRGGMAQKLGSGRGTGQMEGRFTGQRR

binding [2]: binds
binding [3]: binds
B3: G3BP2, endogenous in SH-SY5Y cells (protein, UniProt Q9UN86 1-482)
chain: MVMEKPSPLLVGREFVRQYYTLLNKAPEYLHRFYGRNSSYVHGGVDASGKPQEAVYGQNDIHHKVLSLNFSECHTKIRHVDAHATLSDGVVVQVMGLLSNSGQPERKFMQTFVLAPEGSVPNKFYVHNDMFRYEDEVFGDSEPELDEESEDEVEEEQEERQPSPEPVQENANSGYYEAHPVTNGIEEPLEESSHEPEPEPESETKTEELKPQVEEKNLEELEEKSTTPPPAEPVSLPQEPPKAFSWASVTSKNLPPSGTVSSSGIPPHVKAPVSQPRVEAKPEVQSQPPRVREQRPRERPGFPPRGPRPGRGDMEQNDSDNRRIIRYPDSHQLFVGNLPHDIDENELKEFFMSFGNVVELRINTKGVGGKLPNFGFVVFDDSEPVQRILIAKPIMFRGEVRLNVEEKKTRAARERETRGGGDDRRDIRRNDRGPGGPRGIVGGGMMRDRDGRGPPPRGGMAQKLGSGRGTGQMEGRFTGQRR
